Results from one PubChem assay

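A panel of P. falciparum strains inside erythrocytes is exposed to compounds for three days, then a DNA-binding dye reports the amount of parasite DNA.
Each compound was titrated across a series from about 0.000037 to 29 µM.
The number is the fitted AC50, the concentration giving a half-maximal change in signal; a lower value means higher potency, whether the curve shows a decrease or an increase.
Calls follow the curve class and fit quality: every row here is inconclusive, covering signal-raising curves and weak, poorly fitted, partial or highest-dose-only inhibition curves.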

Values are in µM.
All entries here are filed as inconclusive.
These entries are mostly ones the record files as inconclusive; other results of the assay are not listed here.
A potency from a partial, single-point or poor curve is only a rough figure.

- COc1cc(C(=O)OCCCN2CCCN(CCCOC(=O)c3cc(OC)c(OC)c(OC)c3)CC2)cc(OC)c1OC [JCK] : fitted potency 10 µM (inhibitor, single point)
- COc1cc(C(=O)OCCCN2CCCN(CCCOC(=O)c3cc(OC)c(OC)c(OC)c3)CC2)cc(OC)c1OC [CP268] : fitted potency 13.46 µM (inhibitor, single point)
- COc1cc(C(=O)OCCCN2CCCN(CCCOC(=O)c3cc(OC)c(OC)c(OC)c3)CC2)cc(OC)c1OC [CP297] : fitted potency 6.012 µM (inhibitor, partial curve, poor fit)
- COc1cc(C(=O)OCCCN2CCCN(CCCOC(=O)c3cc(OC)c(OC)c(OC)c3)CC2)cc(OC)c1OC [DIV30] : fitted potency 15.1 µM (inhibitor, partial curve)
- COc1cc(C(=O)OCCCN2CCCN(CCCOC(=O)c3cc(OC)c(OC)c(OC)c3)CC2)cc(OC)c1OC [CP262] : fitted potency 19.01 µM (inhibitor, single point)
- COc1cc(C(=O)OCCCN2CCCN(CCCOC(=O)c3cc(OC)c(OC)c(OC)c3)CC2)cc(OC)c1OC [CP203] : fitted potency 13.46 µM (inhibitor, partial curve)
- COc1cc(C(=O)OCCCN2CCCN(CCCOC(=O)c3cc(OC)c(OC)c(OC)c3)CC2)cc(OC)c1OC [CP266] : fitted potency 19.01 µM (inhibitor, single point)
- COc1cc(C(=O)OCCCN2CCCN(CCCOC(=O)c3cc(OC)c(OC)c(OC)c3)CC2)cc(OC)c1OC [CP256] : fitted potency 15.85 µM (inhibitor, single point)
- COc1cc(C(=O)OCCCN2CCCN(CCCOC(=O)c3cc(OC)c(OC)c(OC)c3)CC2)cc(OC)c1OC [DFO2036] : fitted potency 11.22 µM (inhibitor, single point)
- COc1cc(C(=O)OCCCN2CCCN(CCCOC(=O)c3cc(OC)c(OC)c(OC)c3)CC2)cc(OC)c1OC [CP329] : fitted potency 12 µM (inhibitor, single point)
- COc1cc(C(=O)OCCCN2CCCN(CCCOC(=O)c3cc(OC)c(OC)c(OC)c3)CC2)cc(OC)c1OC [ATS95] : fitted potency 8.912 µM (inhibitor, partial curve)
- COc1cc(C(=O)OCCCN2CCCN(CCCOC(=O)c3cc(OC)c(OC)c(OC)c3)CC2)cc(OC)c1OC [CP238] : fitted potency 10 µM (inhibitor, partial curve)
- COc1cc(C(=O)OCCCN2CCCN(CCCOC(=O)c3cc(OC)c(OC)c(OC)c3)CC2)cc(OC)c1OC [CP217] : fitted potency 10 µM (inhibitor, single point)
- COc1cc(C(=O)OCCCN2CCCN(CCCOC(=O)c3cc(OC)c(OC)c(OC)c3)CC2)cc(OC)c1OC [CP194] : fitted potency 15.1 µM (inhibitor, single point)
- COc1cc(C(=O)OCCCN2CCCN(CCCOC(=O)c3cc(OC)c(OC)c(OC)c3)CC2)cc(OC)c1OC [CP252] : fitted potency 12.59 µM (inhibitor, single point)
- COc1cc(C(=O)OCCCN2CCCN(CCCOC(=O)c3cc(OC)c(OC)c(OC)c3)CC2)cc(OC)c1OC [CP215] : fitted potency 12 µM (inhibitor, single point)
- COc1cc(C(=O)OCCCN2CCCN(CCCOC(=O)c3cc(OC)c(OC)c(OC)c3)CC2)cc(OC)c1OC [SC27B] : fitted potency 11.22 µM (inhibitor, single point)
- COc1cc(C(=O)OCCCN2CCCN(CCCOC(=O)c3cc(OC)c(OC)c(OC)c3)CC2)cc(OC)c1OC [PC15] : fitted potency 14.13 µM (inhibitor, single point)
- COCC(=O)N(c1c(C)cccc1C)C(C)C(=O)OC (stereo not shown) [CP191] : fitted potency 3.981 µM (inhibitor, single point)
- COCC(=O)N(c1c(C)cccc1C)C(C)C(=O)OC (stereo not shown) [N140] : fitted potency 3.548 µM (inhibitor, single point)
- COCC(=O)N(c1c(C)cccc1C)C(C)C(=O)OC (stereo not shown) [P94_40] : fitted potency 3.981 µM (inhibitor, single point)
- COCC(=O)N(c1c(C)cccc1C)C(C)C(=O)OC (stereo not shown) [CP185] : fitted potency 0.8913 µM (inhibitor, single point)
- COCC(=O)N(c1c(C)cccc1C)C(C)C(=O)OC (stereo not shown) [ATS95] : fitted potency 3.162 µM (inhibitor, single point)
- COCC(=O)N(c1c(C)cccc1C)C(C)C(=O)OC (stereo not shown) [CP217] : fitted potency 3.548 µM (inhibitor, single point)
- COCC(=O)N(c1c(C)cccc1C)C(C)C(=O)OC (stereo not shown) [P93_24] : fitted potency 2.818 µM (inhibitor, single point)
- COCC(=O)N(c1c(C)cccc1C)C(C)C(=O)OC (stereo not shown) [CP238] : fitted potency 3.162 µM (inhibitor, single point)
- COCC(=O)N(c1c(C)cccc1C)C(C)C(=O)OC (stereo not shown) [ECU] : fitted potency 3.162 µM (inhibitor, single point)
- COCC(=O)N(c1c(C)cccc1C)C(C)C(=O)OC (stereo not shown) [CP247] : fitted potency 3.981 µM (inhibitor, single point)
- COCC(=O)N(c1c(C)cccc1C)C(C)C(=O)OC (stereo not shown) [CP265] : fitted potency 3.981 µM (inhibitor, single point)
- COCC(=O)N(c1c(C)cccc1C)C(C)C(=O)OC (stereo not shown) [AS120] : fitted potency 3.162 µM (inhibitor, single point)

Data taken from PubChem BioAssay AID504749, deposited by NCATS (2011).